We go through two molecules from patent US20050136040A1, “Control of gene expression using a complex of an oligonucleotide and a regulatory peptide” (Imperial College Innovations Limited, priority 2001, published 2005).

The data set concerns β-actin. Description: β-actin RT-PCR band quantitation in treated LNCap cells (normaliser). The format is cell-based, human. Conditions: 3 days.

Regarding `CC(=O)O[C@]1(C(C)=O)CC[C@H]2[C@@H]3C=C(Cl)C4=CC(=O)[C@@H]5C[C@@H]5[C@]4(C)[C@H]3CC[C@@]21C` [Cyproterone Acetate, Cyproterone acetate], the beta-actin band quantitation (Cyproterone Acetate 0.1 nM) worked out at 13278, the beta-actin band quantitation (Cyproterone Acetate 10 nM) is listed as 14112, the beta-actin band quantitation (Cyproterone Acetate 1 uM) worked out at 11856 and the beta-actin band quantitation (Cyproterone Acetate 10 uM) is 14691.
`C[C@]1(O)CC[C@H]2[C@@H]3CCC4=CC(=O)CCC4=C3C=C[C@@]21C` [R1881]: the beta-actin band quantitation is, setting by setting: (R1881 0.01 nM) 8799; (R1881 1 nM) 14242; (R1881 100 nM) 12536; (R1881 1 uM) 8424. Besides, the “beta-actin band quantitation Average” value by setting is: (R1881 0.01 nM) 8799; (R1881 1 nM) 14242; (R1881 100 nM) 12536; (R1881 1 uM) 8424.
